In patent publication EP1410801B1, “Method for promoting hematopoietic cell proliferation and differentiation” (UNIVERSITY OF SOUTHERN CALIFORNIA, priority 1997, dated 2013):
At least one peptide structure holds a part that was inferred or is arguable (an end, a ring closure or a residue). Some entries repeat one wording, which the source may state once for all of them. No end group written: not given here.

Columns and labels:
[1] = system: Rat Peritoneal Macrophages; assay: Macrophage differentiation: phagocytosis of opsonized yeast particles; type: cell-based, Sprague Dawley rats; details: 4 hours
PBMC = assay: Leukocyte differentiation: respiratory burst (hydrogen peroxide, fluorescent probe, +/- PMA), AII analogues; type: cell-based, human; details: pre-exposure to analogue; in the presence and absence of PMA
[2] = system: Murine Peritoneal Macrophages; assay: Macrophage differentiation: phagocytosis of opsonized yeast particles; type: cell-based, C57B1/6 mice
[3] = system: murine or rat peritoneal macrophages and human peripheral blood mononuclear cells (PBMC); assay: Leukocyte differentiation: respiratory burst (hydrogen peroxide, fluorescent probe, +/- PMA), AII; type: cell-based; details: alone and in response to stimulation with PMA; all studies
rat MSC = assay: Rat mesenchymal stem cell proliferation (bone marrow culture, microscopic examination); type: cell-based, female Sprague Dawley rats; details: AII 1 to 100 µg/ml
enriched HPC [4] = assay: Murine HPC colony formation in semi-solid culture with colony stimulating factors; type: cell-based, C57B1/6 mice; details: normal or 5-FU treated mice; AII 0 to 100 µg/ml
[5] = system: cells that express alkaline phosphatase; assay: Alkaline phosphatase activity of MSC lineage-specific cells in osteogenic medium; type: cell-based, female Sprague Dawley rats; details: osteogenic medium for 4 days; absorbance at 405 nm per culture dish
enriched HPC [6] = assay: Murine HPC colony formation in semi-solid culture in the absence of colony stimulating factors; type: cell-based, C57B1/6 mice; details: 14 days

Molecule | #/Cell ([1]; peptide 100 µg/ml) | % w/Yeast ([1]; peptide 100 µg/ml) [%] | Number of Macrophages with Yeast (Yeast Number) 0 ([1]; peptide 100 µg/ml) | Number of Macrophages with Yeast (Yeast Number) 1-3 ([1]; peptide 100 µg/ml) | Number of Macrophages with Yeast (Yeast Number) 4-6 ([1]; peptide 100 µg/ml) | Number of Macrophages with Yeast (Yeast Number) ≥7 ([1]; peptide 100 µg/ml) | #/Cell ([1]; peptide 1000 µg/ml) | % w/Yeast ([1]; peptide 1000 µg/ml) [%] | Number of Macrophages with Yeast (Yeast Number) 0 ([1]; peptide 1000 µg/ml) | Number of Macrophages with Yeast (Yeast Number) 1-3 ([1]; peptide 1000 µg/ml) | Number of Macrophages with Yeast (Yeast Number) 4-6 ([1]; peptide 1000 µg/ml) | Number of Macrophages with Yeast (Yeast Number) ≥7 ([1]; peptide 1000 µg/ml) | respiratory burst capacity (PBMC) | other results
CC[C@H](C)[C@H](NC(=O)[C@H](Cc1ccc(O)cc1)NC(=O)[C@@H](NC(=O)[C@H](CCCNC(=N)N)NC(=O)[C@@H](N)CC(=O)O)C(C)C)C(=O)N[C@@H](Cc1c[nH]cn1)C(=O)N1CCC[C@H]1C(=O)O [AII(1-7), Asp-Arg-Val-Tyr-Ile-His-Pro] | 0.53 | 20.6 | 100 | 21 | 5 | 0 | 0.85 | 30.8 | 90 | 30 | 10 | 0 | an increase in the respiratory burst capacity was observed | –
CC[C@H](C)[C@H](NC(=O)[C@@H]1CCCN1C(=O)[C@H](Cc1c[nH]cn1)NC(=O)[C@@H](NC(=O)[C@H](Cc1ccc(O)cc1)NC(=O)[C@@H](NC(=O)[C@H](CCCNC(=N)N)NC(=O)[C@@H](N)CC(=O)O)C(C)C)[C@@H](C)CC)C(=O)O [GSD 28, Asp-Arg-Val-Tyr-Ile-His-Pro-Ile] | 0.02 | 1.0 | 100 | 1 | 0 | 0 | 0.02 | 1.0 | 100 | 1 | 0 | 0 | an increase in the respiratory burst capacity was observed | –
RVYAHPF [GSD 22A, RVYAHPF] | 0.59 | 23.7 | 100 | 26 | 5 | 0 | 0.40 | 18.7 | 100 | 22 | 1 | 0 | an increase in the respiratory burst capacity was observed | –
DRPYIHPF [GSD 24B, Asp-Arg-Pro-Tyr-Ile-His-Pro-Phe] | 0.58 | 23.1 | 100 | 25 | 5 | 0 | 0.18 | 9.1 | 100 | 10 | 0 | 0 | an increase in the respiratory burst capacity was observed | –
CC[C@H](C)[C@H](NC(=O)[C@H](Cc1ccc(O)cc1)NC(=O)[C@@H](NC(=O)[C@H](CCCNC(=N)N)NC(=O)[C@@H](N)CC(=O)O)C(C)C)C(=O)N[C@@H](Cc1c[nH]cn1)C(=O)N1CCC[C@H]1C(=O)N[C@@H](Cc1ccccc1)C(=O)O [AII, angiotensin II] | – | – | – | – | – | 0 | – | – | – | – | – | – | – | phagocytic capability of peritoneal macrophages ([2]; 10 µg/ml or greater AII): tremendously increased; yeast observed per macrophage (on average) ([2]; highest concentration of AII): 1; ability of leukocytes to generate hydrogen peroxide [3]: increased the ability of leukocytes to generate hydrogen peroxide both alone and in response to stimulation with PMA; number of MSC (rat MSC; all time points, two different serum lots): caused an increase in the number of MSC in a concentration dependent manner; number of sites from which the MSC were migrating (CPU) and the size (number of cells) of the colonies formed (rat MSC; in the presence of serum): significantly increased; HPC colony size (enriched HPC [4]): increases proportionately with exposure to increased concentrations of AII; proliferation of cells that express alkaline phosphatase [5]: can accelerate the proliferation of cells that express alkaline phosphatase; HPC colony size (enriched HPC [6]): increases proportionately with exposure to increased concentrations
